Literature values, collected in patent publication US20100297025A1, “Novel compositions magnetic particles covered with gem-bisphosphonate derivatives” (Guerbet., priority 2002, published 2010).
The structures given here were assigned with low confidence; some may be wrong.

Protein sequences, listed by entry. Tags and fused reporters are not part of them. Residues count along the entry.
UniProt P05106, 27-788 limits assumed: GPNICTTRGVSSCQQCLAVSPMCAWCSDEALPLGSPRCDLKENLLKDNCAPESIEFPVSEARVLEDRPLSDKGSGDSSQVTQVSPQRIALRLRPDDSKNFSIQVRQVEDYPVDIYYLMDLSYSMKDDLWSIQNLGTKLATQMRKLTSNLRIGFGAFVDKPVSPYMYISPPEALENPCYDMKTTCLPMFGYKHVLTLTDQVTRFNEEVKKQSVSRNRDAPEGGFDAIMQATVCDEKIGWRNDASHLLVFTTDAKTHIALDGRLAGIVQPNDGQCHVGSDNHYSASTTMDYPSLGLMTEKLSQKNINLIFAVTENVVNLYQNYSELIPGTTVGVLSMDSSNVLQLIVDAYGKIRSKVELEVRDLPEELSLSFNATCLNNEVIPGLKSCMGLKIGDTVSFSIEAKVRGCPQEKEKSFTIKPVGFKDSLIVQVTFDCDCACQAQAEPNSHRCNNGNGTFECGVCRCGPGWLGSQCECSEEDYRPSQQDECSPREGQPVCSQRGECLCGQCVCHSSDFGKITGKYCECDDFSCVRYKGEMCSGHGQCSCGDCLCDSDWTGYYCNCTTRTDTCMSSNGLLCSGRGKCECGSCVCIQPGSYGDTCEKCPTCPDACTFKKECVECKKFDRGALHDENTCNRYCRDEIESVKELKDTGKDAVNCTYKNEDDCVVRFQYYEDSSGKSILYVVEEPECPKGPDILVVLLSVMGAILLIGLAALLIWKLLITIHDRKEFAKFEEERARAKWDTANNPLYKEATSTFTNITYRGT
UniProt P06756, 31-1048 limits assumed: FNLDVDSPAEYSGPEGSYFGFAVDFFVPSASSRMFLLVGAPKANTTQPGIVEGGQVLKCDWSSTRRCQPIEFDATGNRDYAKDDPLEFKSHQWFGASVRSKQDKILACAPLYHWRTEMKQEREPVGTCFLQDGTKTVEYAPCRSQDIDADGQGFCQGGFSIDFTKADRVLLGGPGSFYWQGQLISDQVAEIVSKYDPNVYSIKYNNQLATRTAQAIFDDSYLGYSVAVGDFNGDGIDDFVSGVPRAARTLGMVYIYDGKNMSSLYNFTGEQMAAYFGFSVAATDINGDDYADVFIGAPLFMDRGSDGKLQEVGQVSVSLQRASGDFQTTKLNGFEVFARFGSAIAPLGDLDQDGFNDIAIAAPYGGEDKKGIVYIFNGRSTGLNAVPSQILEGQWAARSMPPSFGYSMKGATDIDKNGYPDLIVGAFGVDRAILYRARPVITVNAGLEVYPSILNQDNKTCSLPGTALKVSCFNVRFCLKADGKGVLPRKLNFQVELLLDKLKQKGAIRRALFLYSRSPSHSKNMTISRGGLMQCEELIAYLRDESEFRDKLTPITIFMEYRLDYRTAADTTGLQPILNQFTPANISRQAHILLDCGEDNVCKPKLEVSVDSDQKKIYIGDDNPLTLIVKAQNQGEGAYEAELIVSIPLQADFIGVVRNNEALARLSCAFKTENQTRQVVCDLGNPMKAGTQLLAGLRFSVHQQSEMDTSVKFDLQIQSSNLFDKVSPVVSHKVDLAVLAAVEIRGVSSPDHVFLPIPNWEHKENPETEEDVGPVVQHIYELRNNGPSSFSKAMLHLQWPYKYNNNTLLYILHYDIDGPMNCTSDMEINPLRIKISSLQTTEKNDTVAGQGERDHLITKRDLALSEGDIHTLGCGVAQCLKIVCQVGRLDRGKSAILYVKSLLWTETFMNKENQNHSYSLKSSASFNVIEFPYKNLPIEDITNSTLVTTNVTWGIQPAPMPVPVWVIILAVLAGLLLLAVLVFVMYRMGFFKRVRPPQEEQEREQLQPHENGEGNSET
UniProt P08514, 32-1039 limits assumed: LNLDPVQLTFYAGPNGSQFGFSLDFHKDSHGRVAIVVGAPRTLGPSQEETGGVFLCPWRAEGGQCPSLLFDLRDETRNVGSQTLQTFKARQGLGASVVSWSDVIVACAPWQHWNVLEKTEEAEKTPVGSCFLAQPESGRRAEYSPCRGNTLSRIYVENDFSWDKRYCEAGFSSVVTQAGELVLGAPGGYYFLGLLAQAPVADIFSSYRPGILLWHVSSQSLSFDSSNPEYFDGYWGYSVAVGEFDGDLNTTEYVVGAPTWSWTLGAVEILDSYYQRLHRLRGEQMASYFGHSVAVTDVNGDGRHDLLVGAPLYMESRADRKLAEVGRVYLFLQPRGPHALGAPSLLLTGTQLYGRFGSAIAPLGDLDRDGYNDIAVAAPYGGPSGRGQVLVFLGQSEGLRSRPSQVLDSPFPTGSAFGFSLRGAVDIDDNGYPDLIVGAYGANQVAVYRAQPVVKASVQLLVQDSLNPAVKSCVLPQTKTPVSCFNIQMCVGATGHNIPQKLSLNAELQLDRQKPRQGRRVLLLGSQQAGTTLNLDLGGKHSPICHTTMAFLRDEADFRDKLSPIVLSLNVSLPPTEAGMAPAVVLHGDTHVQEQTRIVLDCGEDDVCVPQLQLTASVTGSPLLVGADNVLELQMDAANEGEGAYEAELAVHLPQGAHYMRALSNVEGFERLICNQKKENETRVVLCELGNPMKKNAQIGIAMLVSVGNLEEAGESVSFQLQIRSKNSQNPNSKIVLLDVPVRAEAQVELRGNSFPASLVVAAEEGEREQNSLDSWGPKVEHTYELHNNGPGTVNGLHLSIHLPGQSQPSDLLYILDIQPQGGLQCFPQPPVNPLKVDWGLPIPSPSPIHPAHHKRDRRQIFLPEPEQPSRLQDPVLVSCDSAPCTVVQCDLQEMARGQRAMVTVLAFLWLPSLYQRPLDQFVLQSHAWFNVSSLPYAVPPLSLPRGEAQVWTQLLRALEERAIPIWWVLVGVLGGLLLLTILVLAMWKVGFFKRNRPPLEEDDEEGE

Assays:
αvβ3 = αvβ3 (Homo sapiens, UniProt P05106+P06756); details: cited from earlier work
αIIbβ3 = αIIbβ3 (Homo sapiens, UniProt P05106+P08514); details: cited from earlier work

What does the source list for CC(C)(C)[C@@H]1NC(=O)[C@H](CC(=O)O)NC(=O)[C@H](CC(=O)O)NC(=O)CNC(=O)[C@H](CCCNC(=N)N)NC(=O)c2cccc(c2)CNC1=O?
IC50 (αvβ3): 0.0006 µM; IC50 (αIIbβ3): 14 µM
